These are yes or no findings as the source states them, for the method shown. Binding seen in cells or lysates may run through a third protein. A result given as binding can be weak or reduced; the word gives no strength.
Target: NnWRKY70b:nYFP fusion protein (BiFC) (Nelumbo nucifera (lotus))
Assay: split reporter; BiFC with the 2in1 split-EYFP system (pBiFCt-2in1-CN), both fusions from one vector with mRFP as internal marker; agro-infiltrated N. benthamiana leaves, confocal microscopy

By UniProt entry, the sequences of proteins in these tests, tags left out. Where a name states a change or a piece, a line headed by the entry shows the natural chain unless it says otherwise.
UniProt A0A977LM10: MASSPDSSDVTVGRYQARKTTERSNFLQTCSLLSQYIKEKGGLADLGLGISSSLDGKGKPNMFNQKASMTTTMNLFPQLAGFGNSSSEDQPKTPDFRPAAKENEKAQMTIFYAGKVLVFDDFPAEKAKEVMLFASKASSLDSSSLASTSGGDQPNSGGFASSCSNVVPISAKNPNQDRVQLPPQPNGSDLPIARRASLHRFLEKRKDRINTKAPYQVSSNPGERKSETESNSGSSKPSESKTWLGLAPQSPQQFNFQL
UniProt A0A977LLH1: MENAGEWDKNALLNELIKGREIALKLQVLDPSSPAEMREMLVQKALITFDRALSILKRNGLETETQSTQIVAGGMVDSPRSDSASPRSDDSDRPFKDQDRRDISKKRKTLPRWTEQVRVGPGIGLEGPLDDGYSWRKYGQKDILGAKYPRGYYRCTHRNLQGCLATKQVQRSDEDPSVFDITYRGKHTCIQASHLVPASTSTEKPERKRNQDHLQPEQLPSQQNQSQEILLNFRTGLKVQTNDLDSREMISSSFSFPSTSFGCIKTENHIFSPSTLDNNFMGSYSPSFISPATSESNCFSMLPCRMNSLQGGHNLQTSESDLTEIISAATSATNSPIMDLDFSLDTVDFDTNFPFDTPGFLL
UniProt A0A977LLH4: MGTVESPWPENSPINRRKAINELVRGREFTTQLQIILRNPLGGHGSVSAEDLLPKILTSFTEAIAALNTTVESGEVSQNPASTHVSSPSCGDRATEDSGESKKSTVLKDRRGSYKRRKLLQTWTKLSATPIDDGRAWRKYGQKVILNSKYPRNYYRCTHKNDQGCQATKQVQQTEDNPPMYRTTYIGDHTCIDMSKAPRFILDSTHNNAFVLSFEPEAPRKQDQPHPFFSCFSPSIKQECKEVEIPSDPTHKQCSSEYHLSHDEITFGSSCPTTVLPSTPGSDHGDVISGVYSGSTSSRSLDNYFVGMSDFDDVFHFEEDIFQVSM

| binding | Substance |
| --- | --- |
| binds | NnJAZ1 (BiFC fusion in pBiFCt-2in1-CN) (from UniProt A0A977LM10) |
| binds | NnWRKY53b (BiFC fusion in pBiFCt-2in1-CN) (from UniProt A0A977LLH1) |
| binds | NnWRKY70a (BiFC fusion in pBiFCt-2in1-CN) (from UniProt A0A977LLH4) |

Source: paper PMC9240598
